No constants are given. Whether binding was seen depends on the method and setting. In cells and extracts the contact can be indirect. Some entries that bind do so weakly or less than the wild type.
Molecular target: MBP-PARP1 fusion protein (UniProt P09874)
Assay: pull-down; MBP-PARP1 fusion protein on beads (amylose resin), incubated with lysates of HEK293T cells expressing SFB-NUDT16 (WT or DDEEE5A); cells untreated, IR 20 Gy, or PARPi (20 μM olaparib, 3 h) before IR; only the target purified

Protein sequences, listed by entry. Tags and fused reporters are not part of them.
UniProt P09874: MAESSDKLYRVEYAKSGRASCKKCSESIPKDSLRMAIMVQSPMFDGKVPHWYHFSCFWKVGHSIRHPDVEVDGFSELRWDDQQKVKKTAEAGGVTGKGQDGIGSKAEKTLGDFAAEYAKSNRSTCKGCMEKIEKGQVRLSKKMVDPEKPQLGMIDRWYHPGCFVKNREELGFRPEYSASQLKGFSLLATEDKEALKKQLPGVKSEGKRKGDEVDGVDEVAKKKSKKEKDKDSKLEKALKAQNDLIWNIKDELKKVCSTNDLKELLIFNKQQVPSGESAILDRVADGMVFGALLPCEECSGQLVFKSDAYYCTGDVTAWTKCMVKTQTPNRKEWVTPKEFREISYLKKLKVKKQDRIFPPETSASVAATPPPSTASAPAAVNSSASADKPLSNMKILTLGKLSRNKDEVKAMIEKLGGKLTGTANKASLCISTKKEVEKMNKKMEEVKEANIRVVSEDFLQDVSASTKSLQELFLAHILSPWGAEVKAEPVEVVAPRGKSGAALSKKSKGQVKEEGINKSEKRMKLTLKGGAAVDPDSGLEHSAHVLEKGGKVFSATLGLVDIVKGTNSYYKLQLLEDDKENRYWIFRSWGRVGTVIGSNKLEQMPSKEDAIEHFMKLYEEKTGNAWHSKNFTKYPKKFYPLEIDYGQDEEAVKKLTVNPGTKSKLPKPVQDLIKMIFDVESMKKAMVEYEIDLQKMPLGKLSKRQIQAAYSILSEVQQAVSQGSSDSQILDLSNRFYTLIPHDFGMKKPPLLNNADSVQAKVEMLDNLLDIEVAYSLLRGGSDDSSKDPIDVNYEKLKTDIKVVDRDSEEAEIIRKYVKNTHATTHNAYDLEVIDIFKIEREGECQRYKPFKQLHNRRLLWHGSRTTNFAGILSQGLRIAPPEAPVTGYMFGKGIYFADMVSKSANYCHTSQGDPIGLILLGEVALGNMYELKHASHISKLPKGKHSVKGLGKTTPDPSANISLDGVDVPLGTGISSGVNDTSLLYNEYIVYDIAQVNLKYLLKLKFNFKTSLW

B1: SFB-NUDT16 DDEEE5A mutant (D63AD66AE118AE119AE124A) (protein, UniProt Q96DE0 1-195)
chain: MAGARRLELGEALALGSGWRHACHALLYAPDPGMLFGRIPLRYAILMQMRFDGRLGFPGGFVATQARSLEDGLNRELREELGEAAAAFRVERTDYRSSHVGSGPRVVAHFYAKRLTLAALLAVAAGATRAKDHGLEVLGLVRVPLYTLRDGVGGLPTFLENSFIGSAREQLLEALQDLGLLQSGSISGLKIPAHH
B1 was tested, and the binding was “binds”.
